Two substances from PMC2265411 can be followed below.

Sequences of proteins named here, by UniProt entry; tags and fusion partners are left off.
UniProt P51809: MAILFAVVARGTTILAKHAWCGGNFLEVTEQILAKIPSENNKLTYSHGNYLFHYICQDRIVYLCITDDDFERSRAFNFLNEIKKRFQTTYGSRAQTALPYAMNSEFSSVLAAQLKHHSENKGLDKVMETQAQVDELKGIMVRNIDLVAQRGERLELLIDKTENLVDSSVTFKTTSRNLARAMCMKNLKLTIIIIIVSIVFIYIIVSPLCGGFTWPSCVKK
UniProt Q15836: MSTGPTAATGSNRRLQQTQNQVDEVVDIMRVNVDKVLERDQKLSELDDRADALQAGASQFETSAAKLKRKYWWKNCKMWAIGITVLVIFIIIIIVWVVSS
UniProt P0CI27: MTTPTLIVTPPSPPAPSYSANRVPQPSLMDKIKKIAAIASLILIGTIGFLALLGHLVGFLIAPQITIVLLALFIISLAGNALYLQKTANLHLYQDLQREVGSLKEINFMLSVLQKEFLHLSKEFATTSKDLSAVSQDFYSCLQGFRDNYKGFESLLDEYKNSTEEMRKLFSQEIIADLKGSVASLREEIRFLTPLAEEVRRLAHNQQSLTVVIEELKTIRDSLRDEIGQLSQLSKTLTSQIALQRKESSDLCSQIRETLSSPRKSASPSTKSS

No constants are given. Whether binding was seen depends on the method and setting. For some assays here: Binding seen in cells or lysates may run through a third protein. Some entries that bind do so weakly or less than the wild type. For some assays here: Where a sequence is shown, tags or fusion partners need not be part of it.

Test [1] concerns the target GFP-Vamp7 (UniProt P51809). In words: co-IP; HeLa cells co-transfected with the inclusion protein and a GFP-SNARE, lysed 24 h later in 50 mM Tris, 150 mM NaCl, 1% Triton X-100, 10 mM EDTA, pH 7.5; GFP-tagged proteins precipitated with anti-GFP monoclonal antibodies; blots with anti-IncA or anti-His.
For test [2], the target named is GFP-Vamp3 (UniProt Q15836). The test is described as above.
For test [3], the target named is T1, GFP-Vamp8 (UniProt Q9BV40).
T1 sequence: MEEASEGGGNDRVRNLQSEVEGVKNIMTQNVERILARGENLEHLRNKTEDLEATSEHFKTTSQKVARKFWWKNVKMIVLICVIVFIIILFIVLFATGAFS
Described as above.

The target of test [4] is T2, GST-Vamp8 purified and reconstituted into liposomes (UniProt Q9BV40).
T2 sequence: T1 sequence
In words: pull-down; purified GST-Vamp and purified IncA-His in two populations of liposomes, mixed 16 hrs at 4°C, dissolved in 2.5% n-dodecyl-maltoside, diluted in buffer A (100 mM KCl, 25 mM HEPES, 10% glycerol, 1% octyl-β-D-glucopyranoside), glutathione agarose; SDS-PAGE, Coomassie; both purified.

Test [5] deals with GST-Vamp3 purified and reconstituted into liposomes (UniProt Q15836). The description is as above.

Regarding “C. trachomatis IncA with a carboxyterminal His tag, expressed in HeLa cells (from UniProt P0CI27 1-273)”, the binding entry in test [1], in test [2] and in test [3] was “binds” each time.

With “Full-length IncA-His purified from E. coli and reconstituted into liposomes (from UniProt P0CI27 1-273)”, the binding entry in test [4] and in test [5] was “binds” in each case.
